Laboratory results: PubChem BioAssay AID1159600 (NIAID, 2016)

Purpose: 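How human macrophage-like cells depend on pathway genes for TLR7/8 agonist response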 (primary screen)
Cell system: human THP-1 TNF reporter clone B5, made macrophage-like with PMA
Reagent: single siRNA against human genes
Time to read-out: 4 h ligand stimulation, assayed 48 to 72 h after siRNA transfection
Conditions: R848 (TLR7/8 agonist) for 4 hours before lysis; dose not given
Measured: 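Robust z-score of firefly over renilla TNF promoter signal after 4 h R848, plate median/MAD normalised, relative to negative controls, averaged across replicates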
Direction: TNF reporter z-score: higher = stronger TNF promoter reporter signal after R848
Hit rule: 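siRNAs graded by distance of mean z-score from zero in steps of 1, 1.5, 2 and 2.5; active calls sit at roughly -1.5 or below, or 1.5 or above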
Calls: active = strong change in TNF reporter (up or down); inactive = little change
In all, the deposit lists 756 reagents; shown is a random part of them. Of all reagents, 134 (18%) are marked active. 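Active includes both reduced and increased reporter signal, though most active siRNAs reduce it; R848 dose unknown.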 Reagents against one gene are numbered here. Not given: the amount of reagent.

What did the screen give for EGR2 #1?
TNF reporter z-score: -1.49; activity call: inactive

Which result is listed for EGR2 #2?
TNF reporter z-score: -0.928; activity call: inactive

What did the screen give for EGR2 #3?
TNF reporter z-score: -0.816; activity call: inactive

What did the screen give for EGR2 #4?
TNF reporter z-score: -1.15; activity call: inactive

With EGR2 #5, how do the results read?
TNF reporter z-score: 0.446; activity call: inactive

With EGR2 #6, what was measured?
TNF reporter z-score: -0.633; activity call: inactive

For TICAM1 #1, what does the deposit list?
TNF reporter z-score: -1.46; activity call: inactive

With TICAM1 #2, how do the results read?
TNF reporter z-score: 0.119; activity call: inactive

For TICAM1 #3, how do the results read?
TNF reporter z-score: 1.23; activity call: inactive

With TICAM1 #4, how do the results read?
TNF reporter z-score: -1.47; activity call: inactive

For TICAM1 #5, what does the deposit list?
TNF reporter z-score: 0.442; activity call: inactive

How did the screen score TICAM1 #6?
TNF reporter z-score: 0.354; activity call: inactive

What did the screen give for SIGIRR #1?
TNF reporter z-score: 0.441; activity call: inactive

For SIGIRR #2, how do the results read?
TNF reporter z-score: -0.531; activity call: inactive

What is on record for SIGIRR #3?
TNF reporter z-score: -0.285; activity call: inactive

Which result is listed for SIGIRR #4?
TNF reporter z-score: -0.31; activity call: inactive

Which result is listed for SIGIRR #5?
TNF reporter z-score: 1.41; activity call: inactive

How did the screen score SIGIRR #6?
TNF reporter z-score: 0.0189; activity call: inactive

For CYLD #1, what does the deposit list?
TNF reporter z-score: -0.531; activity call: inactive

With CYLD #2, how do the results read?
TNF reporter z-score: -1.47; activity call: inactive

With CYLD #3, how do the results read?
TNF reporter z-score: 1.04; activity call: inactive

With CYLD #4, what does the deposit list?
TNF reporter z-score: -0.793; activity call: inactive

For CYLD #5, what does the deposit list?
TNF reporter z-score: -0.991; activity call: inactive

With CYLD #6, what does the deposit list?
TNF reporter z-score: -0.455; activity call: inactive

A few values from the list:
CYLD #1, activity call → inactive
SIGIRR #1, TNF reporter z-score = 0.441
Value of TICAM1 #4 under “activity call”: inactive
Under “TNF reporter z-score”, TICAM1 #5 reads 0.442
TICAM1 #1, activity call → inactive
TICAM1 #2, TNF reporter z-score = 0.119

The list goes on.
With IRAK2 #1, what does the deposit list?
TNF reporter z-score: -0.807; activity call: inactive

For IRAK2 #2, what does the deposit list?
TNF reporter z-score: 1.82; activity call: active

With IRAK2 #3, what does the deposit list?
TNF reporter z-score: -0.491; activity call: inactive

Which result is listed for IRAK2 #4?
TNF reporter z-score: -0.48; activity call: inactive

What is on record for IRAK2 #5?
TNF reporter z-score: 0.442; activity call: inactive

With IRAK2 #6, what does the deposit list?
TNF reporter z-score: 0.85; activity call: inactive

Which result is listed for PIK3R3 #1?
TNF reporter z-score: -1; activity call: inactive

How did the screen score PIK3R3 #2?
TNF reporter z-score: -0.888; activity call: inactive

How did the screen score PIK3R3 #3?
TNF reporter z-score: 0.647; activity call: inactive

For PIK3R3 #4, what was measured?
TNF reporter z-score: -1.11; activity call: inactive

With PIK3R3 #5, how do the results read?
TNF reporter z-score: 0.309; activity call: inactive

With PIK3R3 #6, what was measured?
TNF reporter z-score: -2.03; activity call: active
